In publication PMC11764061:
No constants are given. Whether binding was seen depends on the method and setting. Some entries that bind do so weakly or less than the wild type.

Chains of the proteins cited; added tags and fusions are not shown. Residues count along the entry.
UniProt Q8IJK2, residues 1-118: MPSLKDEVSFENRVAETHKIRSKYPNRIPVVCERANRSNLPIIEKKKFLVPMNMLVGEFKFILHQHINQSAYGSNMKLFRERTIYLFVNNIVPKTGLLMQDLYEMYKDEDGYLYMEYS
UniProt C0H519: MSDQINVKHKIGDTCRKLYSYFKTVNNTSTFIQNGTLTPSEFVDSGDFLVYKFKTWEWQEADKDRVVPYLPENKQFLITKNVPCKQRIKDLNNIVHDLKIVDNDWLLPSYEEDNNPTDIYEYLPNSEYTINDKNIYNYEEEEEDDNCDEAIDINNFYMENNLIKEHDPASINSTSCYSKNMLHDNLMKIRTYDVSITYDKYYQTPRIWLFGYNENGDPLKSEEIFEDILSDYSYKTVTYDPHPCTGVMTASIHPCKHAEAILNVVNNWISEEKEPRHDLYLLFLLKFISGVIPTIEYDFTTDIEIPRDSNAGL

Biological target: FLAG-PfATG8 (Plasmodium falciparum) (UniProt Q8IJK2)
Test: AlphaScreen or HTRF; AlphaScreen: 0.5 µL biotin-ATG3 and 0.125 µL FLAG-ATG8 (total fractions of wheat germ translation mixtures) in 100 mM Tris-HCl pH 8.0, 0.1% Tween-20, 1 mg/mL BSA, 26 °C 1 h; streptavidin donor beads, protein A acceptor beads with anti-FLAG M2 antibody

binding: binds
Substance: biotin-PfATG3 (from UniProt C0H519 1-313)
